Laboratory results: the supplement of paper PMC10849652
This is one part of the list.

Chains of the proteins cited; added tags and fusions are not shown. Lines headed by an entry give the natural chain unless they say otherwise; changes in a name come on top.
UniProt P49796: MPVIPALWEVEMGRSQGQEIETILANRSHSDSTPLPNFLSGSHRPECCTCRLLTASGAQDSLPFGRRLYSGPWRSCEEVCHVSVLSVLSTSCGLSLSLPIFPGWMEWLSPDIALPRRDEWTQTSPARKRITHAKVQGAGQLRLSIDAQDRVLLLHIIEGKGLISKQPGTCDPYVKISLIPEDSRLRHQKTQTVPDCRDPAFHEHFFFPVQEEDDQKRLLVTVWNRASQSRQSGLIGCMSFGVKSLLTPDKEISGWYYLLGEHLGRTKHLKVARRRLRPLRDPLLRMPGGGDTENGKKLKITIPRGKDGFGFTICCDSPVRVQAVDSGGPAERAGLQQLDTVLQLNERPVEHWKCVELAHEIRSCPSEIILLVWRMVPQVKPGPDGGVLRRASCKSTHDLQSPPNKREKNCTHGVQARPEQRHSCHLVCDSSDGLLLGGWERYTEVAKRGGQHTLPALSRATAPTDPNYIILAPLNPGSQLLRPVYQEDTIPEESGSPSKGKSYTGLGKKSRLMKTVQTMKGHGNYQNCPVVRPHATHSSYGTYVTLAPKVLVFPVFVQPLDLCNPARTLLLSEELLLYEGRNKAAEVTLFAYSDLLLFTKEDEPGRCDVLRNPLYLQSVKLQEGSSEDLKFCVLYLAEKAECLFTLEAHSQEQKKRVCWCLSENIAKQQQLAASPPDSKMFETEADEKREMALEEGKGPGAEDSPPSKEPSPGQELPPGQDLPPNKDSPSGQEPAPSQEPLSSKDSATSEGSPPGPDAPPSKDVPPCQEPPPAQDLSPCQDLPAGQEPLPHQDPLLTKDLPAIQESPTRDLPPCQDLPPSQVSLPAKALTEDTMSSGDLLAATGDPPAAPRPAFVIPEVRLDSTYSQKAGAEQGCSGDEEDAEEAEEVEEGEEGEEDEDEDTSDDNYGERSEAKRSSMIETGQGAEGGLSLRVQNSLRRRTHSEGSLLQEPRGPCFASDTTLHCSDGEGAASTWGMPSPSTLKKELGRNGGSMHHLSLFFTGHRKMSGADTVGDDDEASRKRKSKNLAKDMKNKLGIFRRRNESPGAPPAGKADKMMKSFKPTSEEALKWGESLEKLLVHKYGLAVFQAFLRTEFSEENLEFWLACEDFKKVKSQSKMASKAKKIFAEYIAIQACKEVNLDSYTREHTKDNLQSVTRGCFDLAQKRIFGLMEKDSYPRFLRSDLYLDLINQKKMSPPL
UniProt Q9BQ04: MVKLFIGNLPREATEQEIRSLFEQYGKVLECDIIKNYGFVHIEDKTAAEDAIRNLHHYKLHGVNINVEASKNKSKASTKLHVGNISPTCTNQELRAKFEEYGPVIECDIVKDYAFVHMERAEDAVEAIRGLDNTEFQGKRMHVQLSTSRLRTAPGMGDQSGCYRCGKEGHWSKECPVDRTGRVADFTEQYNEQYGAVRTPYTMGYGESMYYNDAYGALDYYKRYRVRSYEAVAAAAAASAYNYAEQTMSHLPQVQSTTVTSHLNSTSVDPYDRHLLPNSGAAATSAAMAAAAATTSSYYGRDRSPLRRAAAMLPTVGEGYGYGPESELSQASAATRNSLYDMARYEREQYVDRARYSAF
UniProt Q8N1G1: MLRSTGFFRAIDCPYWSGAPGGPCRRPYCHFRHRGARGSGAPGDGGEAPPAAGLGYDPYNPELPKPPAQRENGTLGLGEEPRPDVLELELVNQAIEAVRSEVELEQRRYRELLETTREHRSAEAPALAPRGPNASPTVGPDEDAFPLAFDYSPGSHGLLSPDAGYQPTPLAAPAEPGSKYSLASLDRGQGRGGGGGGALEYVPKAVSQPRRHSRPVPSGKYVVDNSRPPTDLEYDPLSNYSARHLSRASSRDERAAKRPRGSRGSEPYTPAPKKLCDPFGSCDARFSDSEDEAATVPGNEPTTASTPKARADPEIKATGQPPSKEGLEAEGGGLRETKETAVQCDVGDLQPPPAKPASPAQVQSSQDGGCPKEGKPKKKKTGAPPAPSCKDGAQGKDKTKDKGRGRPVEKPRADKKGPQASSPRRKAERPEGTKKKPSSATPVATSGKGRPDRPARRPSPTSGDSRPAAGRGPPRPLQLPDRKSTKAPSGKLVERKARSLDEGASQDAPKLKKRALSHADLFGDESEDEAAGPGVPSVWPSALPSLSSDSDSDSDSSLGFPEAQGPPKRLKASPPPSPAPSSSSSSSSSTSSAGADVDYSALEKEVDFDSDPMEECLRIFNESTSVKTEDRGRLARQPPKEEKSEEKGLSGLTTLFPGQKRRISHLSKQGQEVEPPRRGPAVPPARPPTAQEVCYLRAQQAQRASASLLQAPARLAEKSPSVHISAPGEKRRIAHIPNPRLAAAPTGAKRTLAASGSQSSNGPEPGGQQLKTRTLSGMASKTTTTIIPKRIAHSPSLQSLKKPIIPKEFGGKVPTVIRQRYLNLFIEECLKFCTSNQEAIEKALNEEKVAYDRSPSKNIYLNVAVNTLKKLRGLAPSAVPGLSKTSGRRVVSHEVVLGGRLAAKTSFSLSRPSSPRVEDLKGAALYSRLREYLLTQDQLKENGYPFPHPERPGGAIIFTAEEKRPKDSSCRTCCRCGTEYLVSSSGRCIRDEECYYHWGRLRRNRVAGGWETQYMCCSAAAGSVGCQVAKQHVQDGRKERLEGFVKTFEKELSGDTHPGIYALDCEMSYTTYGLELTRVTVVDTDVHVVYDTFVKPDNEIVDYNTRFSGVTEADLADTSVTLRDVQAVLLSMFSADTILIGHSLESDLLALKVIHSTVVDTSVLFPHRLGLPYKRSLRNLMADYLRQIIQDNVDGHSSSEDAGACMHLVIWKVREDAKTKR
UniProt Q8N0T1: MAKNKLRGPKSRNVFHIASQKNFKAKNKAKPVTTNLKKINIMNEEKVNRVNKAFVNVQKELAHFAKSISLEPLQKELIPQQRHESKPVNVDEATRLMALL
UniProt Q02833: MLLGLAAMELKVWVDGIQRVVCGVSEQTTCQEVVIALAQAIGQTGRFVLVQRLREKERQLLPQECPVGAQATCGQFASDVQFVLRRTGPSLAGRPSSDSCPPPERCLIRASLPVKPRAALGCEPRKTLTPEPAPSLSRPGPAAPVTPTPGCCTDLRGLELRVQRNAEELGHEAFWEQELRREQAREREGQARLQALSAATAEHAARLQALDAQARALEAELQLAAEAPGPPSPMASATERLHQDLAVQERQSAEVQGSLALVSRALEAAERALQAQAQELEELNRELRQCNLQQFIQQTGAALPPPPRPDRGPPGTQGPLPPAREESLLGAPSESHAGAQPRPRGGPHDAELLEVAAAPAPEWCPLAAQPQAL
UniProt Q8IUW5: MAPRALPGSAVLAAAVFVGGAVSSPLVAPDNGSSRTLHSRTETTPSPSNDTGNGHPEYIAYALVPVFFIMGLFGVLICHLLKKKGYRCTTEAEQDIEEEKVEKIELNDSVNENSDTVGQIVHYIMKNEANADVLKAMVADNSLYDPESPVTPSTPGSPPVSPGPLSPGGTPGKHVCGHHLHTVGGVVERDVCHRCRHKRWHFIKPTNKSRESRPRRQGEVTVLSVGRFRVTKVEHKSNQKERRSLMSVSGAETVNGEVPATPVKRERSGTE
UniProt Q9HCJ3: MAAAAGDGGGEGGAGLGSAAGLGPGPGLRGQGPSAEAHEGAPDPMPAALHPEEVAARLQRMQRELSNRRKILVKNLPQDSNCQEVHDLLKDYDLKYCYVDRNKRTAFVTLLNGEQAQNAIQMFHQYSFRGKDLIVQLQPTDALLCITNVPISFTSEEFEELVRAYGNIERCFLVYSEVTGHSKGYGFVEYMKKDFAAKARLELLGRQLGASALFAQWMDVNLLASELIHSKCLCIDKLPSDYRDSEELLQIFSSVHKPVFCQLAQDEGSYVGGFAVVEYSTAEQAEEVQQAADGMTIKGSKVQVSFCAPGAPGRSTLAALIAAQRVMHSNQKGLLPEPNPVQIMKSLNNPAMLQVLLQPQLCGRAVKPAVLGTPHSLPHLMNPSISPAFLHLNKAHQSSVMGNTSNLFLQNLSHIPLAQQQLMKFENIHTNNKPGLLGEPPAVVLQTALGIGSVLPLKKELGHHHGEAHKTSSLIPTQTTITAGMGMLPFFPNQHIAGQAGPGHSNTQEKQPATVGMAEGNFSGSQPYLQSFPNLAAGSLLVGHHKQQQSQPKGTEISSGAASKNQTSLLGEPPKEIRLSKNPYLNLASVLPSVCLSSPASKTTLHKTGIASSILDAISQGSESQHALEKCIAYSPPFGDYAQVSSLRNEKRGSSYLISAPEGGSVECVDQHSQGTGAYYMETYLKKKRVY
UniProt P48378: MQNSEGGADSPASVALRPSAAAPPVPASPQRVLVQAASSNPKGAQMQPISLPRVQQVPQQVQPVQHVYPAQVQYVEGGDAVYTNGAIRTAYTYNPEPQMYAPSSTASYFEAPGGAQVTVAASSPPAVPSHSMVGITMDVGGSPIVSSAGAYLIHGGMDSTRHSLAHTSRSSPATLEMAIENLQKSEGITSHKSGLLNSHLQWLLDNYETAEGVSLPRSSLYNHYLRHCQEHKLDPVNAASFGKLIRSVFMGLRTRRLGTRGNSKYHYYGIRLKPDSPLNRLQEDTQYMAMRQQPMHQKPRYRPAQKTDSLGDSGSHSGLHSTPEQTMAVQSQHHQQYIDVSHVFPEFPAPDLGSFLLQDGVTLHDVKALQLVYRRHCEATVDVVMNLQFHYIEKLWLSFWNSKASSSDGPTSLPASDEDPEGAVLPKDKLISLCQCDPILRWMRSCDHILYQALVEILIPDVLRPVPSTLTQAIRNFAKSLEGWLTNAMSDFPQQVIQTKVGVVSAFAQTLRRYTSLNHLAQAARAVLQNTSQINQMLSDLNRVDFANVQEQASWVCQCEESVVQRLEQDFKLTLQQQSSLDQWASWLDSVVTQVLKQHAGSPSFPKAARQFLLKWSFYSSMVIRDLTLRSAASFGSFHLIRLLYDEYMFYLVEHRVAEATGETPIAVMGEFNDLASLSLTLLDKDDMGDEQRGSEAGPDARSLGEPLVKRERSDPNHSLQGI
UniProt Q8N0V3: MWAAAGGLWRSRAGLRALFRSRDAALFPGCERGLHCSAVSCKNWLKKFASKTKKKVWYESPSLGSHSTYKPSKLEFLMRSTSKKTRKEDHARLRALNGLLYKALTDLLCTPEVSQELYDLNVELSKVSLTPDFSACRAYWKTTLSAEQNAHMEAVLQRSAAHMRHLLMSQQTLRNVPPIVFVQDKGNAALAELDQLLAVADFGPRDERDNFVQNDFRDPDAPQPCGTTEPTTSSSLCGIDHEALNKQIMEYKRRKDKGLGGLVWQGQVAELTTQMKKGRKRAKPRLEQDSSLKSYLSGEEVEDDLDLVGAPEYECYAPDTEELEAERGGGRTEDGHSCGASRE
UniProt Q9Y3P4: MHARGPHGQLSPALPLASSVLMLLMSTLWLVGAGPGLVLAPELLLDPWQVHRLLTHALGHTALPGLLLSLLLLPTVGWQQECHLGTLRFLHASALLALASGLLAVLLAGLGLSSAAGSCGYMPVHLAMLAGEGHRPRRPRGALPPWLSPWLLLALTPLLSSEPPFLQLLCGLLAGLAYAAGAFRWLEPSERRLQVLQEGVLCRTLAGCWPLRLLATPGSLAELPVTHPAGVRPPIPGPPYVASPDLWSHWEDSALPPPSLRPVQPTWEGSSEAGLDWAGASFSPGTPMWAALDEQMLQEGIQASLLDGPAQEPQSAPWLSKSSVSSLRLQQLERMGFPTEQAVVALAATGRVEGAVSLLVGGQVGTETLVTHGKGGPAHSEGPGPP
UniProt Q9H4X1: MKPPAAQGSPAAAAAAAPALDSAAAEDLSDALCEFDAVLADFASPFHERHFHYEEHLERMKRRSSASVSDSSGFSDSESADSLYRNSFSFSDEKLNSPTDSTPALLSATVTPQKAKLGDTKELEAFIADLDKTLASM
UniProt Q6PCD5: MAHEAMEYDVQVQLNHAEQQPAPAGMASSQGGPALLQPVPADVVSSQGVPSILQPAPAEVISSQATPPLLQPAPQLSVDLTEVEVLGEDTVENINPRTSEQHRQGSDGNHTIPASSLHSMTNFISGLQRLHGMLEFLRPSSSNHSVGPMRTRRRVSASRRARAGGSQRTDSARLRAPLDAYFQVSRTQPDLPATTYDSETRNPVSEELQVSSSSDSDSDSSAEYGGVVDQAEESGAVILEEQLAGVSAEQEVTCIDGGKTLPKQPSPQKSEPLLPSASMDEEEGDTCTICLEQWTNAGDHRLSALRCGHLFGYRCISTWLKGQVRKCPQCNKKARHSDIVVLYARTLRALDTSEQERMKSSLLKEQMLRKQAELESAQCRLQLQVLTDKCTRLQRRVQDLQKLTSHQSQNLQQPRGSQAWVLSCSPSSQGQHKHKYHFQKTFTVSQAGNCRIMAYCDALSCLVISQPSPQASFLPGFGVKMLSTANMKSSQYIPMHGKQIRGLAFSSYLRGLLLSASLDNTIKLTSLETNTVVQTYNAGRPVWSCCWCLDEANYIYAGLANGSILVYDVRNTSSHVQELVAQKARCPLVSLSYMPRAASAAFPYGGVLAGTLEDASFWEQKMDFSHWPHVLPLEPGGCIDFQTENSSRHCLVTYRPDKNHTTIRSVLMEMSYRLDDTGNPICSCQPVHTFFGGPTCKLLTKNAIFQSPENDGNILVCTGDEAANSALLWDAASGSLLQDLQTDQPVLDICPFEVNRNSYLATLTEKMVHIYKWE

Tests used:
Test in all cases: log2 fold change, soluble protein after heating vs DMSO (PISA); higher = thermal stabilisation; K562 lysate, 10 uM; active = over 0.2 and 3.5 SD of the protein, either way, in both replicates (recomputed)
[1] = compound: CCCS(=O)(=O)Nc1ccc(F)c(C(=O)c2c[nH]c3ncc(Cl)cc23)c1F
How it was run: (§1)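 Pellets of K562 cells were dounce-homogenised in PBS pH 7.4 with 1 mM MgCl2, and the crude extract was held at 1 mg/mL protein for a 30 min treatment with 10 μM compound. Aliquots were heated for 3 min over 48°C-58°C and pooled before NP-40 was added to 0.5% at 4°C. The supernatant from 21,000xg for 90 min was quantified by TMTpro 16plex LC-MS/MS with channel sums equalised. Values are reported from duplicates as log-two fold change in thermal stability relative to solvent controls.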

[2] = compound: CCN(CCCOc1ccc2c(Nc3cc(CC(=O)Nc4cccc(F)c4)[nH]n3)ncnc2c1)CCOP(=O)(O)O [barasertib]
How it was run: as §1

[3] = compound: CC[C@@H]1C(=O)N(C)c2cnc(Nc3ccc(C(=O)N[C@H]4CC[C@H](N5CCN(CC6CC6)CC5)CC4)cc3OC)nc2N1C(C)C [volasertib]
How it was run: as §1

[4] = compound: CCn1c(C(=O)N(C2CC2)C2CC2)cc2c3c(ncn3C)c(Nc3cc(C)n(C)n3)nc21
How it was run: as §1

[5] = compound: CCn1cc(-c2ccnc3[nH]c(-c4cccc(CN(C)C)c4)cc23)c(-c2ccc(NC(=O)N(C)C)cc2)n1
How it was run: as §1

[6] = compound: CN1CCC(CNc2ccc3ncc(-c4cccc(OC(F)(F)F)c4)n3n2)CC1
How it was run: as §1

[7] = compound: CN1CCN(c2nc(C3=C(c4c[nH]c5ccccc45)C(=O)NC3=O)c3ccccc3n2)CC1 [sotrastaurin]
How it was run: as §1

[8] = compound: CCCS(=O)(=O)Nc1ccc(F)c(C(=O)c2c[nH]c3ncc(-c4ccc(Cl)cc4)cc23)c1F [vemurafenib]
How it was run: as §1

[9] = compound: CC[C@@H]1C(=O)N(C)c2cnc(Nc3ccc(C(=O)NC4CCN(C)CC4)cc3OC)nc2N1C1CCCC1
How it was run: as §1

[10] = compound: CN1CCN(CCOc2cc(OC3CCOCC3)c3c(Nc4c(Cl)ccc5c4OCO5)ncnc3c2)CC1 [saracatinib]
How it was run: as §1

Measured: log2 fold change

RGS3 (UniProt P49796)
inactive: [1] -0.052 | [2] 0.105 | [3] -0.019 | [4] -0.243 | [5] -0.196 | [6] 0.108 | [7] 0.034

RBMXL1 (UniProt Q96E39)
inactive: [8] -0.024 | [9] 0.097 | [10] -0.019 | [7] -0.045

RBKS (UniProt Q9H477)
inactive: [4] -0.027 | [5] 0.013 | [6] 0.104 | [10] 0.039

RBP4 (UniProt P02753)
inactive: [2] 0.03 | [5] 0.075 | [6] 0.036 | [7] -0.021

RCBTB1 (UniProt Q8NDN9)
inactive: [4] -0.126 | [5] -0.022 | [6] 0.119 | [7] -0.195

RBFOX2 isoform 8 (UniProt O43251)
inactive: [1] 0.057 | [2] 0.02 | [9] 0.017 | [3] -0.124 | [4] 0.087 | [5] -0.078 | [6] -0.219 | [10] -0.058 | [7] 0.002

RBM4 isoform 3 (UniProt Q9BWF3)
inactive: [7] 0.074

RBM41 (UniProt Q96IZ5)
inactive: [2] 0.05

RASSF3 (UniProt Q86WH2)
inactive: [1] -0.091 | [3] -0.121 | [5] -0.191 | [6] -0.129 | [7] -0.008

RBM4B (UniProt Q9BQ04)
inactive: [7] -0.053

RECQL4 (UniProt O94761)
inactive: [8] -0.019 | [2] 0.1 | [9] 0.054 | [4] 0.043 | [5] -0.254 | [6] -0.026 | [10] 0.043 | [7] -0.017

RFX3 (UniProt P48380)
inactive: [2] 0.085 | [9] -0.076 | [5] 0.006 | [6] 0.116 | [10] -0.009

REXO1 (UniProt Q8N1G1)
inactive: [2] 0.167 | [4] 0.183 | [5] -0.334 | [6] -0.007 | [7] -0.003

RESF1 (UniProt Q9HCM1)
inactive: [9] -0.003 | [4] 0.012 | [10] 0.034 | [7] -0.022

Copied from the entries so far (two entries):
RFX3 (UniProt P48380)
inactive: [2] 0.085 | [9] -0.076 | [5] 0.006 | [6] 0.116 | [10] -0.009

REXO1 (UniProt Q8N1G1)
inactive: [2] 0.167 | [4] 0.183 | [5] -0.334 | [6] -0.007 | [7] -0.003

(next part)

RGPD6 (UniProt H7BZ48)
inactive: [7] -0.009

RBBP9 (UniProt O75884)
inactive: [8] -0.019 | [2] 0.03 | [4] -0.022 | [7] -0.066

RBIS (UniProt Q8N0T1)
inactive: [8] 0.028 | [2] -0.076 | [9] 0.115 | [4] 0.049 | [5] -0.082 | [6] 0.106 | [10] -0.044 | [7] 0.006

RBBP4 isoform 2 (UniProt Q09028)
inactive: [1] -0.037 | [2] 0.008 | [3] 0.048

RGS14 (UniProt O43566)
inactive: [1] 0.015 | [2] 0.016 | [9] 0.189 | [3] -0.117 | [4] 0.009 | [5] -0.243 | [6] 0.05 | [10] 0.01 | [7] -0.017

RASSF7 (UniProt Q02833)
inactive: [2] 0.264 | [5] 0.024 | [6] -0.037 | [7] 0.061

RGS19 (UniProt P49795)
inactive: [5] 0.192 | [6] 0.124 | [7] 0.157

RELL1 (UniProt Q8IUW5)
inactive: [7] 0.148

RAVER2 (UniProt Q9HCJ3)
inactive: [9] -0.025 | [4] -0.003 | [5] 0.171 | [6] 0.051 | [10] 0.075 | [7] 0.078

RFX2 (UniProt P48378)
inactive: [1] -0.042 | [2] 0.032 | [3] -0.158 | [5] 0.137 | [6] -0.06 | [10] -0.048 | [7] 0.088

RBM45 (UniProt Q8IUH3)
inactive: [1] 0.12 | [3] -0.207 | [5] 0.128 | [6] -0.015 | [7] 0.077

RBFA (UniProt Q8N0V3)
inactive: [4] 0.001 | [5] 0.027 | [6] -0.091 | [7] 0.101

RHBDD3 (UniProt Q9Y3P4)
inactive: [7] -0.055

RCOR2 (UniProt Q8IZ40)
inactive: [4] -0.004

RBM20 (UniProt Q5T481)
inactive: [8] -0.177 | [2] 0.016 | [4] -0.095 | [10] -0.083

Fetched one by one from the list above, 2 records:
RBM45 (UniProt Q8IUH3)
inactive: [1] 0.12 | [3] -0.207 | [5] 0.128 | [6] -0.015 | [7] 0.077

RBM20 (UniProt Q5T481)
inactive: [8] -0.177 | [2] 0.016 | [4] -0.095 | [10] -0.083

Next part:

RHD (UniProt Q02161)
inactive: [4] 0.087 | [5] 0.215 | [6] 0.058 | [10] 0.048

RBM12B (UniProt Q8IXT5)
inactive: [2] 0.047 | [4] 0.078

RHBDD2 isoform 2 (UniProt Q6NTF9)
inactive: [4] -0.051

RBL2 (UniProt Q08999)
inactive: [1] 0.077 | [2] -0.021 | [9] -0.07 | [3] -0.125 | [4] -0.043 | [5] -0.071 | [6] 0.137 | [10] -0.019 | [7] -0.07

RBM18 (UniProt Q96H35)
inactive: [8] 0.034 | [9] 0.064 | [4] 0.064 | [5] 0.102 | [6] -0.09

RGCC (UniProt Q9H4X1)
inactive: [8] 0.025 | [4] -0.056 | [5] 0.015 | [6] -0.211

RFWD3 (UniProt Q6PCD5)
inactive: [8] -0.073 | [2] 0.004 | [9] -0.011 | [4] -0.062 | [5] -0.087 | [6] -0.055 | [10] -0.036 | [7] -0.017

RBM48 isoform 2 (UniProt Q5RL73)
inactive: [8] 0.003 | [9] 0.039 | [4] 0.071 | [5] -0.007 | [6] 0.097 | [10] 0.02 | [7] -0.048

RGL2 (UniProt O15211)
inactive: [1] -0.066 | [3] -0.042 | [4] 0.049 | [5] -0.027 | [6] -0.084 | [10] 0.037 | [7] 0.075

RBBP4 isoform 4 (UniProt Q09028)
inactive: [1] -0.253 | [3] -0.025 | [4] -0.272 | [5] 0.916 | [6] -0.133
